Data source: PubChem BioAssay AID686938 (Drosophila RNAi Screening Center, 2013)
In all, the deposit lists about 23,000 reagents; shown is a random part of those with a known target gene and a result. In the full data, 75 (0.33%) were called active. 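Raw plate signals without normalisation; calls rest on plate z-scores that were not deposited; ratio present for only 364 wells.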 Unmarked entries are inactive. No sequences are given here. Not given: the dose of the treatment.

Test: 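Looking for CRAC channel components and the factors controlling them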 (primary screen)
System: Drosophila S2R+ cells
Knock-down reagent: long dsRNA against Drosophila genes, about 0.25 µg dsRNA per well, roughly 10,000 cells
Time to read-out: 5 days of knock-down before the calcium assay
Treatment: thapsigargin (SERCA pump blocker) to empty calcium stores; entry signal taken 4 min after adding it
Read-out: 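Per-well fluo-4 fluorescence in two replicates, unnormalised, measured in resting cells and 4 min after store depletion by the SERCA blocker thapsigargin; ratio of the two present in few wells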
Reading the numbers: calcium entry signal: higher = stronger calcium signal after store depletion; entry to resting ratio: higher = more calcium entry relative to resting level; resting calcium signal: higher = higher resting calcium signal
Hit rule: 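Hit if the duplicate-averaged plate z-score for entry over resting signal is under −3; wells with weak total dye signal (Fmax z < −2) or more than 5 off-targets removed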
Calls: active = strongly reduced calcium entry; inactive = no strong reduction

The first 2 entries, ahead of the listing:
Pcp (GeneID 33985) [DRSC03395] → calcium entry signal, replicate 1 (fluorescence units) = 3.57e7; calcium entry signal, replicate 2 (fluorescence units) = 3.74e7; resting calcium signal, replicate 1 (fluorescence units) = 1.78e7; resting calcium signal, replicate 2 (fluorescence units) = 1.82e7
CtsL4 (GeneID 34401) [DRSC02849] → calcium entry signal, replicate 1 (fluorescence units) = 3.50e7; calcium entry signal, replicate 2 (fluorescence units) = 5.03e7; resting calcium signal, replicate 1 (fluorescence units) = 1.76e7; resting calcium signal, replicate 2 (fluorescence units) = 2.06e7

Results, from the first entry:
Pcp (GeneID 33985) [DRSC03395] → calcium entry signal, replicate 1 (fluorescence units) = 3.57e7; calcium entry signal, replicate 2 (fluorescence units) = 3.74e7; resting calcium signal, replicate 1 (fluorescence units) = 1.78e7; resting calcium signal, replicate 2 (fluorescence units) = 1.82e7
CtsL4 (GeneID 34401) [DRSC02849] → calcium entry signal, replicate 1 (fluorescence units) = 3.50e7; calcium entry signal, replicate 2 (fluorescence units) = 5.03e7; resting calcium signal, replicate 1 (fluorescence units) = 1.76e7; resting calcium signal, replicate 2 (fluorescence units) = 2.06e7
mthl6 (GeneID 38839) [DRSC10234] → calcium entry signal, replicate 1 (fluorescence units) = 3.28e7; calcium entry signal, replicate 2 (fluorescence units) = 4.09e7; resting calcium signal, replicate 1 (fluorescence units) = 1.54e7; resting calcium signal, replicate 2 (fluorescence units) = 1.98e7
CG5968 (GeneID 34986) [DRSC02916] → calcium entry signal, replicate 1 (fluorescence units) = 5.49e7; calcium entry signal, replicate 2 (fluorescence units) = 3.19e7; resting calcium signal, replicate 1 (fluorescence units) = 2.32e7; resting calcium signal, replicate 2 (fluorescence units) = 1.66e7
CG32085 (GeneID 39311) [DRSC10138] → calcium entry signal, replicate 1 (fluorescence units) = 1.93e7; calcium entry signal, replicate 2 (fluorescence units) = 2.23e7; resting calcium signal, replicate 1 (fluorescence units) = 1.12e7; resting calcium signal, replicate 2 (fluorescence units) = 1.10e7
CG32085 (GeneID 39311) [DRSC10139] → calcium entry signal, replicate 1 (fluorescence units) = 2.28e7; calcium entry signal, replicate 2 (fluorescence units) = 2.15e7; resting calcium signal, replicate 1 (fluorescence units) = 1.22e7; resting calcium signal, replicate 2 (fluorescence units) = 1.09e7
CG32085 (GeneID 39311) [DRSC10576] → calcium entry signal, replicate 1 (fluorescence units) = 1.83e7; calcium entry signal, replicate 2 (fluorescence units) = 1.88e7; resting calcium signal, replicate 1 (fluorescence units) = 1.11e7; resting calcium signal, replicate 2 (fluorescence units) = 1.03e7
CG12206 (GeneID 31316) [DRSC17828] → calcium entry signal, replicate 1 (fluorescence units) = 4.31e7; calcium entry signal, replicate 2 (fluorescence units) = 7.65e7; entry to resting ratio = 2.2; resting calcium signal, replicate 1 (fluorescence units) = 1.92e7; resting calcium signal, replicate 2 (fluorescence units) = 3.10e7
CG3198 (GeneID 31602) [DRSC18292] → calcium entry signal, replicate 1 (fluorescence units) = 3.26e7; calcium entry signal, replicate 2 (fluorescence units) = 4.16e7; resting calcium signal, replicate 1 (fluorescence units) = 1.74e7; resting calcium signal, replicate 2 (fluorescence units) = 1.99e7
CG6180 (GeneID 34683) [DRSC02937] → calcium entry signal, replicate 1 (fluorescence units) = 5.16e7; resting calcium signal, replicate 1 (fluorescence units) = 2.58e7
CG5290 (GeneID 39998) [DRSC10501] → calcium entry signal, replicate 1 (fluorescence units) = 3.12e7; calcium entry signal, replicate 2 (fluorescence units) = 3.56e7; resting calcium signal, replicate 1 (fluorescence units) = 1.41e7; resting calcium signal, replicate 2 (fluorescence units) = 2.35e7
awd (GeneID 43739) [DRSC16906] → calcium entry signal, replicate 1 (fluorescence units) = 2.67e7; calcium entry signal, replicate 2 (fluorescence units) = 4.21e7; entry to resting ratio = 1.9; resting calcium signal, replicate 1 (fluorescence units) = 1.38e7; resting calcium signal, replicate 2 (fluorescence units) = 1.73e7
Lcp3 (GeneID 35819) [DRSC07457] → calcium entry signal, replicate 1 (fluorescence units) = 5.06e7; calcium entry signal, replicate 2 (fluorescence units) = 4.08e7; resting calcium signal, replicate 1 (fluorescence units) = 2.29e7; resting calcium signal, replicate 2 (fluorescence units) = 1.91e7
lncRNA:CR32385 (GeneID 3772463) [DRSC22966] → calcium entry signal, replicate 1 (fluorescence units) = 2.36e7; calcium entry signal, replicate 2 (fluorescence units) = 2.65e7; resting calcium signal, replicate 1 (fluorescence units) = 1.21e7; resting calcium signal, replicate 2 (fluorescence units) = 1.02e7
Vha100-4 (GeneID 42214) [DRSC16282] → calcium entry signal, replicate 1 (fluorescence units) = 4.34e7; calcium entry signal, replicate 2 (fluorescence units) = 4.47e7; resting calcium signal, replicate 1 (fluorescence units) = 6.12e7; resting calcium signal, replicate 2 (fluorescence units) = 2.25e7
ClpP (GeneID 34402) [DRSC02806] → calcium entry signal, replicate 1 (fluorescence units) = 4.76e7; resting calcium signal, replicate 1 (fluorescence units) = 2.54e7
CG42591 (GeneID 8674006) [DRSC08905] → calcium entry signal, replicate 1 (fluorescence units) = 2.06e7; calcium entry signal, replicate 2 (fluorescence units) = 3.60e7; resting calcium signal, replicate 1 (fluorescence units) = 1.21e7; resting calcium signal, replicate 2 (fluorescence units) = 1.61e7
Six4 (GeneID 40297) [DRSC11881] → calcium entry signal, replicate 1 (fluorescence units) = 3.69e7; calcium entry signal, replicate 2 (fluorescence units) = 5.01e7; resting calcium signal, replicate 1 (fluorescence units) = 1.68e7; resting calcium signal, replicate 2 (fluorescence units) = 2.14e7
CG10140 (GeneID 39511) [DRSC09704] → calcium entry signal, replicate 1 (fluorescence units) = 3.07e7; calcium entry signal, replicate 2 (fluorescence units) = 3.61e7; resting calcium signal, replicate 1 (fluorescence units) = 1.62e7; resting calcium signal, replicate 2 (fluorescence units) = 1.74e7
Cyp4ad1 (GeneID 35821) [DRSC07369] → calcium entry signal, replicate 1 (fluorescence units) = 3.90e7; calcium entry signal, replicate 2 (fluorescence units) = 3.11e7; resting calcium signal, replicate 1 (fluorescence units) = 1.58e7; resting calcium signal, replicate 2 (fluorescence units) = 1.48e7
SdhB (GeneID 35590) [DRSC05018] → calcium entry signal, replicate 1 (fluorescence units) = 4.38e7; calcium entry signal, replicate 2 (fluorescence units) = 2.87e7; resting calcium signal, replicate 1 (fluorescence units) = 2.18e7; resting calcium signal, replicate 2 (fluorescence units) = 1.49e7
SdhB (GeneID 35590) [DRSC21367] → calcium entry signal, replicate 1 (fluorescence units) = 3.49e7; calcium entry signal, replicate 2 (fluorescence units) = 3.06e7; resting calcium signal, replicate 1 (fluorescence units) = 1.71e7; resting calcium signal, replicate 2 (fluorescence units) = 1.45e7
